The results in this text go back to the supplement of paper PMC9135407.

This experiment relates to primary human hepatic stellate cells (donor 1). Put plainly: percent Bodipy-positive cells; higher = more lipid droplet accumulation. To be noted: 48 h.
Where [1] appears, read: library stock concentration: 3.33 mM.
[2] abbreviates: library stock concentration: 10 mM.
[3] abbreviates: library stock concentration: 2 mM.
[4] abbreviates: library stock concentration: 1 mM.
Setting [5] is: library stock concentration: 4.8 mM.

Where “and” joins values, the source holds several entries; their conditions need not be identical. Equal values may be shown once. Where a name gives a salt, the structure may show the parent alone. ± gives the standard deviation of the averaged measurements. This is one part of the list. Baselines shift from plate to plate; read single values as rough.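 Culture-activated primary human stellate myofibroblasts, where regained lipid droplets signal inactivation. Value: share of Hoechst-counted cells above a per-plate Bodipy cutoff, in duplicate wells, with DMSO negative and nortriptyline positive controls on each plate. Hits: a control-normalized score above the plate's top-tenth-percentile nortriptyline wells, or one of a plate's three best wells. Final well concentrations are not given.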

Regarding `C[C@H]1COC2=C1C(=O)C(=O)c1c2ccc2c1CCCC2(C)C` [Cryptotanshinone], the “percent Bodipy-positive cells” value by setting is: under setting [1], 18.7 ± 6.2%; under setting [2], 53.3 ± 6.3%.
For `CN(C)CC[C@H](CSc1ccccc1)Nc1ccc(S(=O)(=O)NC(=O)c2ccc(N3CCN(Cc4ccccc4-c4ccc(Cl)cc4)CC3)cc2)cc1[N+](=O)[O-]`, the “percent Bodipy-positive cells” value is 10.8 ± 3.5% (library stock concentration: 80 uM); 19.8% and 9.39% (library stock concentration: 400 uM); 4.9% and 8.4% under setting [3]; 13.7 ± 9.1% under setting [1]; 14.8% and 2.75% and 3.88% under setting [2].
Take `O=C(Nc1nc2ccccc2n1CCN1CCOCC1)c1cccc([N+](=O)[O-])c1` [IRAK-1/4 Inhibitor I]: the “percent Bodipy-positive cells” value under setting [2] came out at 72.8 ± 19%.
The same measure, in the same setting: to `CC(C)COC(=O)OCN1C(=O)CN(CCN2CC(=O)N(COC(=O)OCC(C)C)C(=O)C2)CC1=O` [Sobuzoxane] belongs 19.1 ± 1.7%.
For `CCCCC1=NC2(CCCC2)C(=O)N1Cc1ccc(-c2ccccc2-c2nnn[nH]2)cc1` [Irbesartan], the “percent Bodipy-positive cells” value is, setting by setting: (library stock concentration: 4.7 mM) 6.6 ± 2.7%; under setting [2], 34.5 ± 7.5%.
On to `O=[N+]([O-])c1ccc2c(c1)S(=O)(=O)C=C2` [Stattic], for which, under setting [2], the “percent Bodipy-positive cells” value is 98.68 ± 0.98%.
On to `CC[C@H]1OC(=O)[C@H](C)[C@@H](O[C@H]2C[C@@](C)(OC)[C@@H](O)[C@H](C)O2)[C@H](C)[C@@H](O[C@@H]2O[C@H](C)C[C@H](N(C)C)[C@H]2O)[C@](C)(OC)C[C@@H](C)C(=O)[C@H](C)[C@@H](O)[C@]1(C)O`, for which the “percent Bodipy-positive cells” value under setting [2] amounted to 36.6 ± 11%.
Regarding `CC[C@H]1OC(=O)[C@H](C)[C@@H](O[C@H]2C[C@@](C)(OC)[C@@H](O)[C@H](C)O2)[C@H](C)[C@@H](O[C@@H]2O[C@H](C)C[C@H](N(C)C)[C@H]2O)[C@](C)(OC)C[C@@H](C)C(=O)[C@H](C)[C@@H](O)[C@]1(C)O` [Clarithromycin], the “percent Bodipy-positive cells” value runs as follows: under setting [1], 10.5 ± 5.1%; under setting [2], 16.5% and 40%.
In the case of `Nc1ccc(-c2ccc3ccccc3n2)cc1` [BF-170 hydrochloride], the “percent Bodipy-positive cells” value under setting [2] was 32.6 ± 2.4%.
As for `OC1C[C@@H]2[C@@H](CC[C@@H](O)CCc3ccccc3)[C@H](O)C[C@@H]2O1` (some centres not stated) [Latanoprost Lactol], under setting [4], the “percent Bodipy-positive cells” value was found to be 13.5 ± 3%.
For `CS(=O)(=O)CCNCc1ccc(-c2ccc3ncnc(Nc4ccc(OCc5cccc(F)c5)c(Cl)c4)c3c2)o1`, the “percent Bodipy-positive cells” value under setting [3] is 96.54 ± 0.54%.
Regarding `CCCCOC(=O)c1ccc(N)cc1` [Butamben], the “percent Bodipy-positive cells” value was determined as 11.2 ± 0.17%. Also, under setting [2], the “percent Bodipy-positive cells” value stood at 25 ± 3.8%.
As to `CCCCC[C@H](O)/C=C/[C@H]1C=CC(=O)[C@@H]1CCCCCCC(=O)O` [Prostaglandin A1], the “percent Bodipy-positive cells” value under setting [4] was 10.4% and 6.21%.
Regarding `O=C(Nc1ccc(C(=O)O)c(O)c1)c1ccccc1` [Benzoylpas], under “library stock concentration: 7.8 mM”, the “percent Bodipy-positive cells” value is 19.4 ± 5.4%.
For `Cc1ccc(S(=O)(=O)n2c(N)nc3ccccc32)cc1` [ML130 (Nodinitib-1)], the “percent Bodipy-positive cells” value runs as follows: under setting [1], 6.35 ± 1.4%; under setting [2], 9.67 ± 4.6%.
`Cn1c(=O)c2[nH]c(C3CCCC3)nc2n(C)c1=O` [8-Cyclopentyl-1,3-dimethylxanthine]: the “percent Bodipy-positive cells” value under setting [2] was 55.8 ± 5.6%.
For the compound `CC(C)COCC(CN(Cc1ccccc1)c1ccccc1)N1CCCC1` (configuration not stated) [Bepridil hydrochloride], the “percent Bodipy-positive cells” value turned out to be 83 ± 11%. Further, the “percent Bodipy-positive cells” value (library stock concentration: 5 mM) is 84.9 ± 4%. For the same compound, the “percent Bodipy-positive cells” value under setting [2] is 52.3% and 61%.
For the compound `C=NC(C(=O)NC1C(=O)N2C1SC(C)(C)C2C(=O)O)c1ccccc1` (configuration not stated) [Metampicillin sodium], the “percent Bodipy-positive cells” value under setting [2] turned out to be 20.7 ± 0.25%.
Regarding `NC(=O)c1ncn([C@@H]2O[C@H](CO)[C@@H](O)[C@H]2O)n1` [Ribavirin], the “percent Bodipy-positive cells” value worked out at 10.9 ± 3.2%. Also, under setting [1], the “percent Bodipy-positive cells” value turned out to be 10.1 ± 7.4%.
On to `CCC(CC)(CC(=O)Nc1cccc(/C=C/c2nc(C3CCC3)cs2)c1)C(=O)O` [Cinalukast], for which the “percent Bodipy-positive cells” value under setting [2] was 6.25 ± 1.1%.
On to `CCOc1ccc2c(c1)C(C)=CC(C)(C)N2` [Ethoxyquin], for which the “percent Bodipy-positive cells” value is 13.9 ± 1.4%. Further, the “percent Bodipy-positive cells” value under setting [2] was determined as 36.7 ± 13%.
Consider `CCCCCCCCCCCCCCCCNc1ccc(C(=O)O)cc1` [Cetaben], for which the “percent Bodipy-positive cells” value under setting [4] worked out at 5.84 ± 1.9%.
On to `O=C(NCc1ccncc1)C12CC3CC(C1)CC(c1ccc(Cl)cc1)(C3)C2`, for which the “percent Bodipy-positive cells” value (library stock concentration: 13.1 mM) came to 46.7 ± 6%.
In the case of `CCOC(=O)[C@H](CCc1ccccc1)N[C@@H](C)C(=O)N1[C@H](C(=O)O)C[C@@H]2CCC[C@@H]21` [Ramipril], the “percent Bodipy-positive cells” value was 8.39 ± 2.1%. The “percent Bodipy-positive cells” value under setting [1] was found to be 21.2 ± 2.6%. Also, the “percent Bodipy-positive cells” value under setting [5] is 8.37% and 11.5%. In addition, the “percent Bodipy-positive cells” value under setting [2] was found to be 15.2 ± 0.77%.
Regarding `CCOC(=O)[C@H](CCc1ccccc1)N[C@@H](C)C(=O)N1[C@H](C(=O)O)C[C@@H]2CCC[C@@H]21`, the “percent Bodipy-positive cells” value under setting [2] is 9.52% and 33.6%.
In the case of `COc1ccc(-c2cnc3c(-c4cccc5ncccc45)cnn3c2)cc1`, the “percent Bodipy-positive cells” value by setting is: under setting [1], 65.1 ± 8.6%; under setting [2], 72.5 ± 17%.
For `NS(=O)(=O)c1cc2c(cc1Cl)N=CNS2(=O)=O` [Chlorothiazide], the “percent Bodipy-positive cells” value stood at 30.2 ± 12%. The “percent Bodipy-positive cells” value under setting [1] turned out to be 8.14 ± 1.5%. Also, the “percent Bodipy-positive cells” value (library stock concentration: 6.8 mM) is 2.71 ± 0.8%.
For the compound `CNS(=O)(=O)Cc1ccc2[nH]cc(CCN(C)C)c2c1` [Sumatriptan succinate], under setting [2], the “percent Bodipy-positive cells” value was found to be 11.2 ± 0.31%.
Turning to `CNS(=O)(=O)Cc1ccc2[nH]cc(CCN(C)C)c2c1` [Sumatriptan Succinate], the “percent Bodipy-positive cells” value under setting [5] amounted to 4.76 ± 0.48%.
For `CNS(=O)(=O)Cc1ccc2[nH]cc(CCN(C)C)c2c1`, the “percent Bodipy-positive cells” value under setting [2] is 10.8 ± 5%.
`O=c1c(O)c(-c2ccc(O)c(O)c2)oc2cc(O)ccc12` [Fisetin]: the “percent Bodipy-positive cells” value by setting is: under setting [1], 10.6 ± 2.5%; under setting [2], 16.9 ± 2.1%.
For the compound `COc1cc2ncnc(Oc3cccc(NC(=O)Nc4cc(C(C)(C)C(F)(F)F)on4)c3)c2cc1OC`, the “percent Bodipy-positive cells” value runs as follows: under setting [1], 28.4 ± 3.4%; under setting [2], 40.2 ± 14%.
For `CCCCCCCCCCCCCCCCCCCCCCC(=O)OCC` [Ethyl Tricosanoate], under setting [4], the “percent Bodipy-positive cells” value was determined as 7.57 ± 2.2%.
Consider `CN[C@H](CC(C)C)C(=O)N[C@H]1C(=O)N[C@@H](CC(N)=O)C(=O)N[C@H]2C(=O)N[C@H]3C(=O)N[C@H](C(=O)N[C@H](C(=O)O)c4cc(O)cc(O)c4-c4cc3ccc4O)[C@H](O)c3ccc(c(Cl)c3)Oc3cc2cc(c3O[C@@H]2O[C@H](CO)[C@@H](O)[C@H](O)[C@H]2O[C@H]2C[C@](C)(N)[C@H](O)[C@H](C)O2)Oc2ccc(cc2Cl)[C@H]1O` [Vancomycin hydrochloride from Streptomyces orientalis], for which, under setting [2], the “percent Bodipy-positive cells” value is 14.1 ± 0.41%.
`CN[C@H](CC(C)C)C(=O)N[C@H]1C(=O)N[C@@H](CC(N)=O)C(=O)N[C@H]2C(=O)N[C@H]3C(=O)N[C@H](C(=O)N[C@H](C(=O)O)c4cc(O)cc(O)c4-c4cc3ccc4O)[C@H](O)c3ccc(c(Cl)c3)Oc3cc2cc(c3O[C@@H]2O[C@H](CO)[C@@H](O)[C@H](O)[C@H]2O[C@H]2C[C@](C)(N)[C@H](O)[C@H](C)O2)Oc2ccc(cc2Cl)[C@H]1O` [Vancomycin hydrochloride]: the “percent Bodipy-positive cells” value was found to be 41.1 ± 5%. Besides, under setting [2], the “percent Bodipy-positive cells” value turned out to be 23.9 ± 3.7%.
